Assay results from patent US7560262B2, “Polynucleotide sequences encoding alkaline α-galactosidases and methods of using same” (The State of Israel - Ministry of Agriculture & Rural …, priority 2002, dated 2009).

Assay: pH and temperature dependence of α-galactosidase activity of recombinant Aga-I and Aga-II
Assay type: biochemical
Procedure: α-galactosidase assay of E. coli extracts—α-galactosidase activity was assayed as described by Smart and Pharr [Smart and Pharr (1980) Plant Physiol. 66:731-734] and as performed by Gao and Schaffer (1999) Plant Physiol. 119:979-987]. Reaction was initiated by adding 50 μl enzyme aliquot to 200 μl McIlvaine buffer (made by mixing stock solutions of 0.1M citric acid and 0.2M sodium hydrogen phosphate to achieve pH of 5.0 and 7.0 for the assay of acid and alkaline activity, respectively) and 50 μl substrate (final concentration, 5 mM for pNPG and 10 mM for the natural substrates). […] Substrates used were the synthetic substrates based on p-nitrophenol (pNP-sugars), including the pNPa-gal (Sigma) and the natural substrates stachyose, raffinose and melibiose. In addition, substrate concentration dependence of the reaction was measured by varying the substrate concentrations from 0-10 mM. Km and Vmax values were calculated using Lineweaver-Burk plots.

B1: Aga-I: Cucumis melo alkaline-α-galactosidase I, SEQ ID NO: 6, encoded by SEQ ID NO: 5 (protein)
chain: MTVGAGITISDANLTVLGNRVLSDVHNNITLTAAPGGGVMNGAFIGVQSDQIGSRRVFPIGKLIGLRFLCAFRFKLWWMTQRMGCSGQEVPFETQFLVVETRDGSNIAGNGEEGDAVYTVFLPILEGDFRAVLQGNDNNEIEICLESGDPSVDGFEGSHLVFVGAGSDPFETITYAVKSVEKHLQTFAHRERKKMPDILNWFGWCTWDAFYTDVTSDGVKKGLESFENGGIPPKFVIIDDGWQSVAKDATSADCKADNTANFANRLTHIKENYKFQKDGKEGERIENPALGLQHIVSYMKEKHATKYVYVWHAITGYWGGVSAGVKEMEQYESKIAYPVASPGVESNEPCDALNSITKTGLGLVNPEKVFNFYNEQHSYLASAGVDGVKVDVQNILETLGAGHGGRVKLARKYHQALEASISRNFQDNGIISCMSHNTDGLYSSKRNAVIRASDDFWPRDPASHTIHIASVAYNSLFLGEFMQPDWDMFHSLHPMAEYHGAARAVGGCAIYVSDKPGQHDFNLLKKLVLPDGSILRAKLPGRPTKDCLFTDPARDGKSLLKIWNLNDLSGVVGVFNCQGAGWCKVGKKNLIHDENPDTITGVIRAKDVSYLWKIAGESWTGDAVIFSHLAGEVVYLPQDASMPITLKPREFDVFTVVPVKELVNDIKFAPIGLIKMFNSGGAVKEMNHQPGSSNVSLKVRGSGPFGAYSSSKPKRVAVDSEEVEFMYDEGGLITIDLKVPEKELYLWDIRIEL
modifications: Cucumis melo
temperature above which activity was significantly decreased (data not shown): above 40 °C
temperature range of activity (recombinant enzyme): 30-37 °C
